Reference: publication PMC10838660, “Artificial intelligence-powered discovery of small molecules inhibiting CTLA-4 in cancer” (BJC reports, 2024)

Test system: CD45+ immune cells from MC38 tumors
Experiment: Single-cell RNA and TCR sequencing of CD45+ tumor immune cells
Format: in vivo, hCTLA-4 mice
Excerpt: Using another cohort of hCTLA-4 mice inoculated with MC38 cells, we treated animals (n = 5 per group) with ipilimumab, anti-PD-1, anti-PD-1 plus D11, D11 alone, or vehicle in the same dosages as used previously. Some animals’ tumors were collected approximately 10 days after the last treatment dose, whereas for the remaining animals, the tumors were allowed to grow (Supplementary Fig. S7). […] Single-cell suspensions from tumors were sorted to obtain CD45^+ immune cells, which were then subjected to single-cell RNA sequencing (scRNAseq) and TCR sequencing. Next, the immune cell populations were compared across the samples (Fig. 5b, c). […] Another interesting observation from the scRNAseq analysis was that the differential expression of membrane-type 1 matrix metalloproteinase, which is known for its role as a key regulator in cell migration in tissues, was associated with D11 treatment. This finding could lead to a possible new mechanism of action, besides macrophage recruitment, to drive the search for anticancer compounds.
We used the Gini and the 1-Pielou indexes to determine the clonotype distributions and the clonality of the TCR repertoire from the TCR sequencing data. […] CDR3 plays a dominant role in recognizing processed antigen peptides.
Tumors from CTLA-4-humanized MC38 syngeneic mice (n = 3–5 mice) were extracted for single-cell suspension using a gentleMACS Octo Dissociator (Miltenyi Biotec). The cells were stained with antimouse CD45 antibody (PE-Cy7, Clone 30-F11, Cat. 103114, Lot B354212) and sorted with a BD FACSAria II Cell Sorting Flow Cytometer. Library preparation of CD45^+ sorted cells for scRNAseq was performed using a 10X Genomics Chromium Single Cell 5′ Library & Gel Bead Reagent Kit. For TCR sequencing, a Chromium Single Cell V(D)J Enrichment Kit was used. The acquired scRNAseq reads from the 10X Genomics platform were aligned to a reference genome (mm10) using Cell Ranger (V.7.1, 10X Genomics) default parameters. The reads and cells were further filtered with Seurat (V.4.0.3) in R (V.4.1.0). Usually, measurements across datasets cannot be compared because of distinct factors that could influence cellular identities. Such factors, which include the sensitivity and accuracy of the methods used, can cause transcript abundance bias and lead to false negatives. Therefore, we employed an unsupervised strategy to anchor datasets together to facilitate integration and comparison across single-cell-sequenced samples [76]. This method allowed accurate cross-comparisons among samples because only specific subsets of cells with the same molecular features are compared to each other. First, to overcome the batch effect, we used a diagonalized canonical correlation analysis to reduce the dimensionality in the 5 treatment datasets of hCTLA-4 mice. Second, L2-normalization was applied to the canonical correlation vectors used to identify mutual nearest neighbors. Third, anchors (cell pairs) were identified by searching for mutual nearest neighbors in this shared low-dimensional representation. These anchors encode for the cellular relationships across datasets; subsequent integration analyses depend on these relationships. […] The clonality of the TCR repertoire was calculated as a 1-Pielou index value using the formula 1+ ∑(i=1 to n) (pi*ln(pi))/ln(n), where pi is the frequency of clone i for a sample of n unique clones; this metric was normalized to the number of unique clones and ranges from 0 to 1. […]

Substance: ipilimumab: an anti-CTLA-4 antibody, first immune checkpoint blockade therapy to receive FDA approval
- % of total TCRs (top TCR clone no. 1 of the group): 4.8%
- % of total TCRs (top TCR clone no. 2 of the group): 1.9%
- % of total TCRs (top TCR clone no. 3 of the group): 1.6%
- % of total TCRs (top TCR clone no. 4 of the group): 1.3%
- % of total TCRs (top TCR clone no. 5 of the group): 0.6%
